Binding data for one molecule are collected here from PMC12499416, “ATF3 Deficiency Exacerbates Ageing‐Induced Atherosclerosis and Clinical Intervention Strategy” (Advanced Science, 2025).

This assay deals with activating transcription factor 3 (ATF3), endogenous in VSMCs (mouse (endogenous in VSMCs)). The experiment in a line: affinity purification with mass spectrometry; immunoprecipitation with ATF3 antibody against IgG control, mass spectrometry of the precipitate; cells not named for this experiment.

Results are given in words; binding and its absence hold for the method and conditions named. Binding seen in cells or lysates may run through a third protein. A yes stands for co-enrichment or nearness to the bait. Other partners may have been found.

B1: autophagy-related 7 (ATG7), endogenous in VSMCs (protein, UniProt Q9D906 1-698)
chain: MGDPGLAKLQFAPFNSALDVGFWHELTQKKLNEYRLDEAPKDIKGYYYNGDSAGLPTRLTLEFSAFDMSASTPAHCCPAMGTLHNTNTLEAFKTADKKLLLEQSANEIWEAIKSGAALENPMLLNKFLLLTFADLKKYHFYYWFCCPALCLPESIPLIRGPVSLDQRLSPKQIQALEHAYDDLCRAEGVTALPYFLFKYDDDTVLVSLLKHYSDFFQGQRTKITVGVYDPCNLAQYPGWPLRNFLVLAAHRWSGSFQSVEVLCFRDRTMQGARDVTHSIIFEVKLPEMAFSPDCPKAVGWEKNQKGGMGPRMVNLSGCMDPKRLAESSVDLNLKLMCWRLVPTLDLDKVVSVKCLLLGAGTLGCNVARTLMGWGVRHVTFVDNAKISYSNPVRQPLYEFEDCLGGGKPKALAAAERLQKIFPGVNARGFNMSIPMPGHPVNFSDVTMEQARRDVEQLEQLIDNHDVIFLLMDTRESRWLPTVIAASKRKLVINAALGFDTFVVMRHGLKKPKQQGAGDLCPSHLVAPADLGSSLFANIPGYKLGCYFCNDVVAPGDSTRDRTLDQQCTVSRPGLAVIAGALAVELMVSVLQHPEGGYAIASSSDDRMNEPPTSLGLVPHQIRGFLSRFDNVLPVSLAFDKCTACSPKVLDQYEREGFTFLAKVFNSSHSFLEDLTGLTLLHQETQAAEIWDMSDEETV
Regarding B1, the binding entry is on record as “binds”.
